The list does not hold the whole screen: it gathers tests that were run many times, whatever their T/C, doses with no T/C, and many T/C values between a quarter and a half above the control. Further doses and runs are listed elsewhere. T/C: endpoint of the treated group in % of that of the vehicle group. Some entries give survivors of the animals treated and no T/C: the source holds a T/C of zero for them, seemingly a mark for toxic or unscored doses. Some doses without a T/C left all or most animals alive at the check, yet need not have been tolerated: survival well below the control is almost never listed, so the zero probably covers shortened survival too. Counts of survivors are from the toxicity check (mostly the fifth day) where no day follows; animals may have died later. Schedules are NCI's codes, read here as Q, the interval in days (D) or hours (H), X, the number of doses. Counts like (3×) give the number of equal values in this list. Some schedule codes hold Z or #, which are not explained here. For survival time, the PubChem record calls one and a half times the control and up active, and a quarter to a half above the control has no call in these data; cut-offs in other NCI protocols can differ. Some T/C values are followed by the survivors on the day toxicity was checked, most often the fifth; where none is given, no animal had died by that day. Some entries hold several experiments; their values stand side by side, smallest first.

The test deals with L1210 leukemia ip in BDF1 mice, survival T/C. The test can be described thus: NCI In Vivo Anticancer Drug Screen. Data for tumor model L1210 Leukemia (intraperitoneal) in B6D2F1 (BDF1) mice. As to conditions: T/C endpoint: mean survival time, higher T/C = longer survival.
Setting [1] is: dose: 200.0 mg/kg/injection, schedule: Q01DX001 (ip), vehicle: saline.
Setting [2] is: dose: 400.0 mg/kg/injection, schedule: Q01DX001 (ip), vehicle: saline.
Where [3] appears, read: dose: 200.0 mg/kg/injection, schedule: Q04DX003 (ip), vehicle: saline with Tween-80.
[4] abbreviates: dose: 400.0 mg/kg/injection, schedule: Q04DX003 (ip), vehicle: saline with Tween-80.
The mark [5] stands for this setting: dose: 200.0 mg/kg/injection, schedule: Q04DX003 (ip), vehicle: saline.
[6] abbreviates: dose: 400.0 mg/kg/injection, schedule: Q04DX003 (ip), vehicle: saline.
Where [7] appears, read: dose: 400.0 mg/kg/injection, schedule: Q04DX002 (ip), vehicle: Klucel (hydroxypropylcellulose) (HPC).
The mark [8] stands for this setting: dose: 200.0 mg/kg/injection, schedule: Q01DX009 (ip), vehicle: saline.
[9] abbreviates: dose: 100.0 mg/kg/injection, schedule: Q04DX003 (ip), vehicle: Klucel (hydroxypropylcellulose) (HPC).
Setting [10] is: dose: 400.0 mg/kg/injection, schedule: Q01DX009 (ip), vehicle: Klucel (hydroxypropylcellulose) (HPC).
Where [11] appears, read: dose: 400.0 mg/kg/injection, schedule: Q04DX003 (ip), vehicle: Klucel (hydroxypropylcellulose) (HPC).

Consider `NNc1ncnc2c1ccn2C1OC(CO)C(O)C1O` (stereo not drawn), for which the T/C (dose: 12.5 mg/kg/injection, schedule: Q01DX005 (ip), vehicle: saline) is 128 and 134 % of control; the T/C (dose: 25.0 mg/kg/injection, schedule: Q01DX005 (ip), vehicle: saline) is 127 and 142 % of control; the T/C (dose: 50.0 mg/kg/injection, schedule: Q01DX005 (ip), vehicle: saline) is 136 and 143 % of control [4 of 6 alive]; the T/C (dose: 80.0 mg/kg/injection, schedule: Q01DX001 (ip), vehicle: saline) was 127 % of control. The survivor count is, setting by setting: (dose: 100.0 mg/kg/injection, schedule: Q01DX005 (ip), vehicle: saline) 1 of 6; (dose: 120.0 mg/kg/injection, schedule: Q01DX001 (ip), vehicle: saline) 3 of 6; under setting [1], 0 of 6; (dose: 200.0 mg/kg/injection, schedule: Q01DX005 (ip), vehicle: saline) 0 of 6; under setting [2], 0 of 6.

For `N#Cc1cccc[n+]1Cc1ccc([N+](=O)[O-])cc1`, the survivor count by setting is: under setting [3], 6 of 6; under setting [4], 5 of 6.

Take `CCN(CC)CC(=O)NCC(C)(CCN1CCCCC1)c1cccc2ccccc12` (stereo not drawn): the survivor count is, setting by setting: (dose: 100.0 mg/kg/injection, schedule: Q01DX009 (ip), vehicle: saline) 0 of 6; under setting [5], 5 of 6; under setting [6], 0 of 6.

In the case of `Cc1ccc(CCC(=O)O)c2ccccc12`, the survivor count under setting [7] is recorded as 2 of 3.

Take `COc1ccc(/C=N/NC(=O)c2ccccc2OC)cc1`: the T/C under setting [8] is 125 % of control.

In the case of `Cc1cccc(C2NC(=O)N3C(c4cccc(C)c4)NC(=O)N23)c1` (stereo not drawn), where the note is “dose: 400.0 mg/kg/injection, schedule: Q01DX009 (ip), vehicle: gum acacia”, the survivor count is given as 6 of 6.

As to `O=C(O)c1ccccc1C(=O)OC1CC2C=CC1C21CC1` (stereo not drawn), under setting [9], the T/C was 125 % of control [5 of 6 alive]. Also, the survivor count is reported as 0 of 6 under setting [10] and 1 of 6 under setting [11].

As for `CN1N=Nc2cccc3cccc1c23`, the survivor count runs as follows: (dose: 200.0 mg/kg/injection, schedule: Q01DX009 (ip), vehicle: acetone) 0 of 6; (dose: 400.0 mg/kg/injection, schedule: Q04DX003 (ip), vehicle: acetone) 3 of 6.

For `CN(C)CCN(C(=O)c1ccc(N)cc1)c1ccccc1`, under setting [8], the survivor count is given as 0 of 3.

Turning to `COC(=O)c1cncn1C(C)c1ccccc1` (stereo not drawn), the survivor count reads like this: under setting [8], 0 of 6; under setting [5], 3 of 6; under setting [6], 0 of 6.

`CS(=O)(=O)Nc1cc(C(O)C2CCCCN2)ccc1O` (stereo not drawn): the survivor count under setting [6] was 5 of 6.

Consider `CC[S][Pb]([c]1ccccc1)([c]1ccccc1)[c]1ccccc1`, for which the survivor count (dose: 25.0 mg/kg/injection, schedule: Q04DX002 (ip), vehicle: Klucel (hydroxypropylcellulose) (HPC)) was 3 of 3; the survivor count (dose: 50.0 mg/kg/injection, schedule: Q04DX002 (ip), vehicle: Klucel (hydroxypropylcellulose) (HPC)) was 3 of 3; the survivor count (dose: 100.0 mg/kg/injection, schedule: Q04DX002 (ip), vehicle: Klucel (hydroxypropylcellulose) (HPC)) is given as 0 of 3; the survivor count (dose: 200.0 mg/kg/injection, schedule: Q04DX002 (ip), vehicle: Klucel (hydroxypropylcellulose) (HPC)) was 0 of 3; the survivor count under setting [7] is listed as 0 of 3.

Regarding `Nc1ncnc2nc[nH]c12.[Tl]`, where the note is “dose: 12.5 mg/kg/injection, schedule: Q01DX009 (ip), vehicle: water”, the survivor count was 4 of 6.

Consider `O/N=C\CCC/C=N/O`, for which the survivor count under setting [10] is 5 of 6.

For `c1ccc(C2(C3(c4ccccc4)SCCCS3)CN2)cc1` (stereo not drawn), the survivor count (dose: 400.0 mg/kg/injection, schedule: Q01DX001 (ip), vehicle: Klucel (hydroxypropylcellulose) (HPC)) was 6 of 6.

In the case of `COc1c(O)ccc2c1-c1c3c(cc4c1C(C2)NCC4)OCO3` (stereo not drawn), the survivor count was 0 of 6 under setting [1] and 1 of 6 under setting [2].

For `O=C(/C=C\c1ccc(C(=O)Nc2ccc(C3=NCCCN3)cc2)cc1)Nc1ccc(C2=NCCCN2)cc1`, the T/C reads like this: (dose: 0.5 mg/kg/injection, schedule: Q01DX Z (ip), vehicle: water) 138 % of control; (dose: 2.5 mg/kg/injection, schedule: Q01DX Z (ip), vehicle: water) 147 % of control; (dose: 3.75 mg/kg/injection, schedule: Q01DX Z (ip), vehicle: water) 143 % of control; (dose: 5.0 mg/kg/injection, schedule: Q01DX Z (ip), vehicle: water) 131 % of control; (dose: 5.25 mg/kg/injection, schedule: Q01DX Z (ip), vehicle: water) 143 % of control; (dose: 400.0 mg/kg/injection, schedule: Q01DX Z (oral), vehicle: water) 145 % of control [4 of 6 alive]. The survivor count by setting is: (dose: 21.0 mg/kg/injection, schedule: Q01DX Z (ip), vehicle: water) 1 of 6; (dose: 42.0 mg/kg/injection, schedule: Q01DX Z (ip), vehicle: water) 0 of 6.

`O=C(/C=C/c1ccccc1)NC(=S)Nc1cc(C(F)(F)F)ccc1Cl`: the survivor count under setting [4] is given as 6 of 6.

On to `NNC(=S)Nc1ccccc1`, for which the survivor count (dose: 10.0 mg/kg/injection, schedule: Q01DX009 (ip), vehicle: saline with Tween-80) is 5 of 6 and the survivor count (dose: 20.0 mg/kg/injection, schedule: Q01DX009 (ip), vehicle: saline with Tween-80) was 2 of 6.

Turning to `CCN(C(C)C)C(C)C`, the survivor count by setting is: under setting [3], 0 of 6; under setting [4], 0 of 6.

Regarding `O=C(NCCCl)Nc1cccnc1`, the survivor count is given as 6 of 6 (dose: 6.25 mg/kg/injection, schedule: Q01DX009 (ip), vehicle: saline); 6 of 6 (dose: 12.5 mg/kg/injection, schedule: Q01DX009 (ip), vehicle: saline); 6 of 6 (dose: 25.0 mg/kg/injection, schedule: Q01DX009 (ip), vehicle: saline); 4 of 6 (dose: 50.0 mg/kg/injection, schedule: Q04DX003 (ip), vehicle: saline with Tween-80); 1 of 6 under setting [9]; 1 of 6 (dose: 200.0 mg/kg/injection, schedule: Q04DX003 (ip), vehicle: Klucel (hydroxypropylcellulose) (HPC)). Also, the survivor count under setting [11] is 1 of 6.

In the case of `COc1ccc(N=NNc2ccc(OC)cc2)cc1`, the survivor count (dose: 50.0 mg/kg/injection, schedule: Q01DX009 (ip), vehicle: saline with Tween-80) is 5 of 6 (2×); the survivor count (dose: 100.0 mg/kg/injection, schedule: Q01DX009 (ip), vehicle: saline with Tween-80) is 1 of 6; the survivor count (dose: 100.0 mg/kg/injection, schedule: Q04DX003 (ip), vehicle: saline with Tween-80) was 6 of 6; the survivor count under setting [3] was 0 of 6; the survivor count under setting [4] was 1 of 6.

With `Cc1nc(N)sc1C`, the survivor count (dose: 100.0 mg/kg/injection, schedule: Q04DX002 (ip), vehicle: saline with Tween-80) is on record as 1 of 5.

Source of the values: PubChem BioAssay AID248 (DTP/NCI, 2004).
